{
  "source": "patent US7601687B2",
  "about": "“Mechanism for identifying drugs for the treatment of type II diabetes” (BioCrine AB, priority 2006, dated 2009)",
  "tested_on": "rat insulin-I gene promoter",
  "assay": "On-line monitoring of insulin promoter-driven DsRed/GFP expression (prIns1.DsRed) in transfected HIT-T15 cells and islet cells",
  "type": "cell-based, hamster (HIT-T15), rat (islet cells)",
  "conditions": "5 mU/ml insulin; 25 μM LY294002, 10 nM rapamycin, 400 nM AC, 100 μM HNMPA-(AM)3",
  "from_the_text": "Construction of prIns1.GFP has been described earlier (Leibiger et al., 1998a). Vector prIns1.DsRed was generated by exchanging the EGFP-expression cassette versus the DsRed-expression cassette obtained from pDsRed1-1 (Clontech). Plasmid prβGK.GFP (i.e. prβGK-278.GFP) was generated by exchanging the CAT-SV40pA-expression cassette of prβGK-278.CAT (Leibiger et al., 1994a) versus the EGFP-bGHpA-expression cassette obtained from pRcCMVI.GFP (Moede et al., 1999). […] All vector constructions were verified by DNA sequence analysis. Constructs for expression of the human Insulin Receptor A and B types, pCMVHIR(A) and pCMVHIR(B) and the control plasmid pCMVstop were kindly provided by Dr. A. Ullrich (Max-Planck-Institute for Biochemistry, Martinsried, Germany). Expression constructs pCMV5.PKBα, pCMV5.PKBαΔ308/437, pCMV5.PDK1 and pCMV5.PDK1-antisense were kindly provided by Drs. P. Cohen and D. R. Alessi (MRC Phosphorylation Unit, University of Dundee, UK). […]\nDetection of fluorescence by digital imaging fluorescence microscopy was performed as described previously (Leibiger et al., 1998a; Leibiger et al., 1998b). […] Fluorescence imaging was performed with a cooled charged-coupled device camera (CH250 with KAF 1400, Photometrics, Tucson, Ariz.) connected to an imaging system (Inovision) with fluorescence excitation from a SPEX fluorolog-2 CM1T11I spectrofluorometer (Spex Industries). […]",
  "note": "At least one structure is not confirmed: it was looked up by name or label, or the drawing left a doubt.",
  "data": [
    {"molecule": "O=c1cc(N2CCOCC2)oc2c(-c3ccccc3)cccc12", "note": "[LY294002]", "values": [
      {"measurement": "effect of inhibitor on insulin-stimulated insulin gene transcription / insulin promoter activity", "value": "abolished"}
    ]}
  ]
}
